Values of other authors in US20250339472A1 (priority 2024, published 2025).
For at least one compound, name, drawing or mass did not settle the structure.

Protein sequences, listed by entry. Tags and fused reporters are not part of them. Residues count along the entry.
UniProt P22303, 32-614, species assumed: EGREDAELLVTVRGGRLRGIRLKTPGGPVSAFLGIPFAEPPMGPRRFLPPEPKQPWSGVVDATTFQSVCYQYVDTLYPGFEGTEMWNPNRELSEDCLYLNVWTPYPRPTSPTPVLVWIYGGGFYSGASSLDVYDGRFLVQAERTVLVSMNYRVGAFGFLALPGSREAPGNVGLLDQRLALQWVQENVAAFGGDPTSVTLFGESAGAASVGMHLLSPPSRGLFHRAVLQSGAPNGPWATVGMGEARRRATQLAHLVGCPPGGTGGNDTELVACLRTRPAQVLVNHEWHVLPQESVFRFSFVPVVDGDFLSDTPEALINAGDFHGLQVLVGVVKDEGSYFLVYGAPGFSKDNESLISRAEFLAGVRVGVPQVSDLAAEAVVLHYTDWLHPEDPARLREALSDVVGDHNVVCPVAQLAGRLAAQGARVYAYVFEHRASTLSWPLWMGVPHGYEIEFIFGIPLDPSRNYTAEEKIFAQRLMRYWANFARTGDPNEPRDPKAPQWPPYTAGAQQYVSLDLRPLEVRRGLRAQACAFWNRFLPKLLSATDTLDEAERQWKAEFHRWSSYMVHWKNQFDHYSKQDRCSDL

Molecular target: acetylcholinesterase (Homo sapiens, UniProt P22303)

COc1cc(CCC(=O)CC(=O)CCc2ccc(O)c(OC)c2)ccc1O [tetrahydrocurcumin]
inhibition of acetylcholinesterase activity: twice as well as Curcumin
